# Results from one PubChem assay

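Genome-wide siRNA knockdown in TC32 Ewing sarcoma cells, comparing luciferase light from an NR0B1-promoter reporter with a CMV-promoter reporter 48 hours after transfection. Each siRNA was applied at 20 nM. A z-score of the log NR0B1-over-CMV signal, less the median of siRNAs with the same seed; more negative means a stronger specific loss of the NR0B1 reporter.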

This is part of the screen; most of the strongest results are not listed here. Sequences are the guide (antisense) strand, without overhang.

| # | siRNA | gene | seed-corrected z-score |
|---|---|---|---|
| 1 | `UAAAUGUCGACCUCUGUCU` | MGLL | -0.05554 |
| 2 | `UUCAUUCUCUGCAAGUUUC` | MTRF1L | 0.6244 |
| 3 | `UAAAUCCUAAAUGGAAUGG` | SOHLH1 | -0.3376 |
| 4 | `UCAUAUAUUCCAGCAAGGC` | LOC342293 | -0.02512 |
| 5 | `AAAGUAUUUAGACGCCUGC` | DLC1 | -0.1452 |
| 6 | `UCUUCUUUAAUGAAGCCCU` | KCNA5 | -1.468 |
| 7 | `UUAGGUAAACCUUAUCCUC` | CBLN4 | 0.9932 |
| 8 | `UUUUUGUUGAGUGAUGACA` | IGFBP6 | 0.8093 |
| 9 | `UAAAAUUCACCAGUUGCUC` | TMEM106C | -0.3074 |
| 10 | `AUAUAGAUAAAGCUGAACC` | RNF145 | 1.426 |
| 11 | `UCGGUAGUAACAGAAGUGC` | PGM5P4 | -0.7177 |
| 12 | `AAAGGGAUUGGCUGCAAUC` | TBX6 | -0.7737 |
| 13 | `UGCUCGUCAGUGAAGAUGG` | GSC | 0.1749 |
| 14 | `AGUUCGUCCAACAAUGUCC` | LOC440895 | 0.2154 |
| 15 | `UUCCAUACUAGGGCUAGCC` | CCAR1 | -0.02794 |
| 16 | `UUAAUUCUUUGUUGCGAGC` | CTNND1 | -0.9709 |
| 17 | `AUAUCUUCAACUACUCCUG` | SYCP3 | 0.9177 |
| 18 | `AAUGUAACAAGCCUCAGGG` | PBK | -0.2394 |
| 19 | `UUGUAGUCUCUGUAGAUCU` | MAP1LC3C | 0.4522 |
| 20 | `UAUUCUUCCAACAGUAUCU` | CCDC144NL | -0.2455 |
| 21 | `UUGUAGACGAGUUCUUACA` | HYPM | -0.06008 |
| 22 | `UUGGACUACAGCACUGAGC` | LMF2 | -0.03517 |
| 23 | `AAAGGAAUCAGUCCCGGCU` | MLXIP | 0.5974 |
| 24 | `UGAAAUUCCGUUCUUGUCC` | SCLY | -0.1799 |
| 25 | `UUUGUAAUCACACGACUGG` | ANKS1B | 0.3742 |
| 26 | `UUCUGUACUCGAAGAUUGG` | SEMG2 | -0.01777 |
| 27 | `UAUCUUGCAAGUCUAUAGC` | KCNT2 | -1.464 |
| 28 | `UGAGGUCCGUGUGAUUUGC` | LINC00207 | 1.512 |
| 29 | `UGUUGGUACACUUCCACUC` | HCFC1 | 0.6718 |
| 30 | `UCUUCAUCCAGAAUACGGG` | COL11A2 | -0.01739 |
| 31 | `AUUGAGAUCAGGGAAGUUG` | CPN1 | -0.2743 |
| 32 | `UACUCGUCUAUUAAAUCUG` | PRKAR2A | -1.022 |
| 33 | `AAUCGAACAUUUGUCCUGG` | RAB3GAP2 | -0.1355 |
| 34 | `UGUGGUAAAGCAGAGGUCC` | OR2H1 | 0.9648 |
| 35 | `AAUGGGAACGCGUAACUGG` | ZNF479 | 0.3398 |
| 36 | `UCAUGGUGAAGAAUUCGUC` | DUOX2 | -0.04889 |
| 37 | `AACUUGACAGCAGUGAUGG` | MAPKBP1 | 0.5056 |
| 38 | `AAUUGCAAUAUCGUGUUCC` | CDC27P6 | 0.6277 |
| 39 | `UCACGAUCAACCAUUACUC` | ASB17 | -0.6971 |
| 40 | `AUCAUAAUUAUCGACUCCU` | LOC730100 | 1.118 |
| 41 | `GAGGACAGCAAAUAGCUCC` | FAM86B2 | 0.03264 |
| 42 | `UAUGAUGAAAAUUUCUGCA` | LOC643496 | -0.2952 |
| 43 | `AAUAGUGUUACUUUUGACC` | RBM12 | 0.2122 |
| 44 | `UCUGGAGAAAUCGUUCACC` | NEIL2 | 0.6816 |
| 45 | `UUUCUUAUCAUUAGAGACC` | PCDHB11 | -0.1004 |

For reference, 5 entries once more:

| siRNA | gene | seed-corrected z-score |
|---|---|---|
| `AAAGGGAUUGGCUGCAAUC` | TBX6 | -0.7737 |
| `UUCAUUCUCUGCAAGUUUC` | MTRF1L | 0.6244 |
| `UCACGAUCAACCAUUACUC` | ASB17 | -0.6971 |
| `UUUGUAAUCACACGACUGG` | ANKS1B | 0.3742 |
| `UCAUAUAUUCCAGCAAGGC` | LOC342293 | -0.02512 |

From PubChem BioAssay record AID1159506 (NCATS, 2015).